Measurements published in the supplement of paper PMC12067093, “Discovery and optimisation of a covalent ligand for TRIM25 and its application to targeted protein ubiquitination” (Chemical Science, 2025).
This is one part of the list.

By UniProt entry, the sequences of proteins in these tests, tags left out. Where a name states a change or a piece, a line headed by the entry shows the natural chain unless it says otherwise.
UniProt Q9NRF8: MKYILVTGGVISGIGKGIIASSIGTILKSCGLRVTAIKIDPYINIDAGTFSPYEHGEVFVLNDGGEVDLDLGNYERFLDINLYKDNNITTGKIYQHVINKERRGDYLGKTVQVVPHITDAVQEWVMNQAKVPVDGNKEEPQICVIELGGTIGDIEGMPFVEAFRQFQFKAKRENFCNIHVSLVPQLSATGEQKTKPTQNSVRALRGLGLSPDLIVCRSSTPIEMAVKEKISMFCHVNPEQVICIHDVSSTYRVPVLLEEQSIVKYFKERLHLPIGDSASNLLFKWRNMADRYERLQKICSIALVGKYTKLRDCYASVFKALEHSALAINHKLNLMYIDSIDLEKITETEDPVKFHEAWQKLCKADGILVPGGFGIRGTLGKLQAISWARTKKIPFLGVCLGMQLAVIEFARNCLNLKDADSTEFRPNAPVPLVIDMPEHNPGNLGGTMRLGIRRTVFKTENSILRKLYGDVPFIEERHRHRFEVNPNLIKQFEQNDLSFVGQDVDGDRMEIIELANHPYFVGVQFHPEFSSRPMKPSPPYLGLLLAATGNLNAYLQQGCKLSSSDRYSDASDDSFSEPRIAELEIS
UniProt Q7L576: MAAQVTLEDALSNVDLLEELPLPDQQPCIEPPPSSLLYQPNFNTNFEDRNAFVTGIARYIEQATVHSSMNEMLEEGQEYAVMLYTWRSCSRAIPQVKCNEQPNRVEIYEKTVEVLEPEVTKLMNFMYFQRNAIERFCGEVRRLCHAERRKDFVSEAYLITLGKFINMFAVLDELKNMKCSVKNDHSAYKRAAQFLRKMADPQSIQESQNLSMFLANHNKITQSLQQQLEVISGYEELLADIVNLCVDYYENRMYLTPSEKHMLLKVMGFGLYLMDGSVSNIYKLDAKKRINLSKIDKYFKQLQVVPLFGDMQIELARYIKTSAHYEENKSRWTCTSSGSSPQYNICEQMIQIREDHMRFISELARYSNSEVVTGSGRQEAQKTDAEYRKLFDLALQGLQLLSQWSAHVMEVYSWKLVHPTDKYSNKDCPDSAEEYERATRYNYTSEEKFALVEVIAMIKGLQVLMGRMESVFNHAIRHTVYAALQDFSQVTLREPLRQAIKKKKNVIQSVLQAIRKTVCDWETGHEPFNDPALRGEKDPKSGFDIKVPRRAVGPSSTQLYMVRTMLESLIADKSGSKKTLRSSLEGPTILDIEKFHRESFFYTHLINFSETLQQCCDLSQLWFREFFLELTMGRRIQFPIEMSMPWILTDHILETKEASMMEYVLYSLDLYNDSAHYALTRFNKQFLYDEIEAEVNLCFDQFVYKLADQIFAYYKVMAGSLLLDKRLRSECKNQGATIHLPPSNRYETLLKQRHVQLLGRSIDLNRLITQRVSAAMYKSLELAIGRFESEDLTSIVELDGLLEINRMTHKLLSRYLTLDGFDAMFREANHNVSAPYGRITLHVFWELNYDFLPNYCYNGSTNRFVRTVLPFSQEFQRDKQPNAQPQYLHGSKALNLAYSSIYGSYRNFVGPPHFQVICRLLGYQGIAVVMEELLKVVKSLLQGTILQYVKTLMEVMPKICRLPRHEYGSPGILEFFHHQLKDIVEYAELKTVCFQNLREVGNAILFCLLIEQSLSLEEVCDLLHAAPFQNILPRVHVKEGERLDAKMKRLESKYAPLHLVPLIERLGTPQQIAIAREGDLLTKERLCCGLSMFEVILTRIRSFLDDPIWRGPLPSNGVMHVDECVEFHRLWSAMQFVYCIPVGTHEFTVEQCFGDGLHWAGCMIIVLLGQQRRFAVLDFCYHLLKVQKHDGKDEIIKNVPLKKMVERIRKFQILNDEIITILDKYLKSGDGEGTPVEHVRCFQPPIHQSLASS
UniProt Q9UIA0: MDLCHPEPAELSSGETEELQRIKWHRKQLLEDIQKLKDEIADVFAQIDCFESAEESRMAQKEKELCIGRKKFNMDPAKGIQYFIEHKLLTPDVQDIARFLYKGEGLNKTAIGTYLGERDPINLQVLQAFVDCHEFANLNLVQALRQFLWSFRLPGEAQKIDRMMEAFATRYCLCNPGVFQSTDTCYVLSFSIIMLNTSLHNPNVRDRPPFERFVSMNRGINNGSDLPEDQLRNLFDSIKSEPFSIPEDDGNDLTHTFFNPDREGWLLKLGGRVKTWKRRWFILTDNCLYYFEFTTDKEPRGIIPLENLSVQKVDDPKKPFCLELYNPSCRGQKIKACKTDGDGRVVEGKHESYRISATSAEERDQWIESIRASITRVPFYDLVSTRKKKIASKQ
UniProt Q8TB03: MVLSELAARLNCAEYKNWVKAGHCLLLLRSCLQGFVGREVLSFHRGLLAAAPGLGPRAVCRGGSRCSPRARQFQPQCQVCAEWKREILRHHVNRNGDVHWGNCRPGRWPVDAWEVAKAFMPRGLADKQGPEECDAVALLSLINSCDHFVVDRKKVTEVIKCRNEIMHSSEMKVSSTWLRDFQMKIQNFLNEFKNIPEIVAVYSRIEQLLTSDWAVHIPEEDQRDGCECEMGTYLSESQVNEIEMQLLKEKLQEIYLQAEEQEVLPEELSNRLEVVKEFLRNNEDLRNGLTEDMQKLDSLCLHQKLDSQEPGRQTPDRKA
UniProt Q9P0U4, whole entry, looked up: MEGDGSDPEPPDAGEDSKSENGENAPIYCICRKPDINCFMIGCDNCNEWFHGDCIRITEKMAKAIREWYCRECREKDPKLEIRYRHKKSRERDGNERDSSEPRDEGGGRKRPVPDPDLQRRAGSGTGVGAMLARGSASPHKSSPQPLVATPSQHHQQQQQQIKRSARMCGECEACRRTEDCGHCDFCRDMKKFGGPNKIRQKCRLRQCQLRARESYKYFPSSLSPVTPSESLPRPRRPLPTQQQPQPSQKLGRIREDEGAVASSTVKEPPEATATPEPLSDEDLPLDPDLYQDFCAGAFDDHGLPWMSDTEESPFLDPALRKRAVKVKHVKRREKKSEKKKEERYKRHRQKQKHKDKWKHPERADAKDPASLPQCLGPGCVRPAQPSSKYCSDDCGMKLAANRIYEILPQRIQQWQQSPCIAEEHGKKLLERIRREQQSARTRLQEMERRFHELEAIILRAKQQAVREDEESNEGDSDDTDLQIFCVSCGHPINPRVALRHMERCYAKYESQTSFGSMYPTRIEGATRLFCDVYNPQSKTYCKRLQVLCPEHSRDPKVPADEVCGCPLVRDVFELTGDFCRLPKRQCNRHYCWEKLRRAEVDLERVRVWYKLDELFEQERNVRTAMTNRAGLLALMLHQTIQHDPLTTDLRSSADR
UniProt P25774, whole entry, looked up: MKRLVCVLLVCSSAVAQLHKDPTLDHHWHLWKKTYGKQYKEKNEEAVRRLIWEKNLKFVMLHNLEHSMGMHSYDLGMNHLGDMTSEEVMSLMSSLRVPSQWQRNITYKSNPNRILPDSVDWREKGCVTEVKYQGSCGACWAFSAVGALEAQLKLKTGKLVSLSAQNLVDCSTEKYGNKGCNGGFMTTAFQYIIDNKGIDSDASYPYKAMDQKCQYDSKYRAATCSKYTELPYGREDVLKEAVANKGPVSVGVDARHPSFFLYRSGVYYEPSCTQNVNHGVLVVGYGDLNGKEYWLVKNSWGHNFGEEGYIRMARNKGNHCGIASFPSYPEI
UniProt Q13620, whole entry, looked up: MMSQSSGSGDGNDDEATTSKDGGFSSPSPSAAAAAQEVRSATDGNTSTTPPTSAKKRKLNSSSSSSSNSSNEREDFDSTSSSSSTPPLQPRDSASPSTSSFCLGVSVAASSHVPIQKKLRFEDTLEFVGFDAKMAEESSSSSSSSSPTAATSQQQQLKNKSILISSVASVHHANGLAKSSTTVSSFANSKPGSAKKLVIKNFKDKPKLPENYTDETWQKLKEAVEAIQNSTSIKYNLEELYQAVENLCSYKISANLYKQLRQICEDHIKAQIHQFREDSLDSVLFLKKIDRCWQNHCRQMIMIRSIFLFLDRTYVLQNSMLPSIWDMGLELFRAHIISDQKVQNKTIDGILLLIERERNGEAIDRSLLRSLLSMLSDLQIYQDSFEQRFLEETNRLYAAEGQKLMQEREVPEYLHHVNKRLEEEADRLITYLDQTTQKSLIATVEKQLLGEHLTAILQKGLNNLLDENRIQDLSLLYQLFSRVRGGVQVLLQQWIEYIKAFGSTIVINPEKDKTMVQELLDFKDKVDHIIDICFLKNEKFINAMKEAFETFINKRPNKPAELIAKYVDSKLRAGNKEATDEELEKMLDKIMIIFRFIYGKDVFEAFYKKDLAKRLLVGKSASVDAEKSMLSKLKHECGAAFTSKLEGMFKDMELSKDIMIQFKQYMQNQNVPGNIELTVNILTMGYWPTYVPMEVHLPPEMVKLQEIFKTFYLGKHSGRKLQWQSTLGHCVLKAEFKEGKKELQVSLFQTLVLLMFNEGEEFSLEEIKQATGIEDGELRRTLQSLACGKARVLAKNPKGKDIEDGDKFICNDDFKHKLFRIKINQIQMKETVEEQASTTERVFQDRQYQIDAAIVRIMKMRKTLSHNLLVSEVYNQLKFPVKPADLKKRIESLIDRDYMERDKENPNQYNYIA
UniProt P07339: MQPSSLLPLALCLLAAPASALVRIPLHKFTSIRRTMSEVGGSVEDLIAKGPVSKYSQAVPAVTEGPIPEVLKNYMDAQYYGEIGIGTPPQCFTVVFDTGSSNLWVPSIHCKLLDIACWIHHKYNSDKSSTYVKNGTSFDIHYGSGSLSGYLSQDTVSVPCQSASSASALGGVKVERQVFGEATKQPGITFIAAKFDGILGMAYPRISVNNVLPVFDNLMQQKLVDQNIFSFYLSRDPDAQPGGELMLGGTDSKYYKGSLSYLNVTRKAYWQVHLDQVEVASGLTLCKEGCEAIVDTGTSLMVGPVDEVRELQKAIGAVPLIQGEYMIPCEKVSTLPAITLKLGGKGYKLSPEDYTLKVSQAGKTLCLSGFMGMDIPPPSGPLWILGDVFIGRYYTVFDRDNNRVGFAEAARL
UniProt Q14203, whole entry, looked up: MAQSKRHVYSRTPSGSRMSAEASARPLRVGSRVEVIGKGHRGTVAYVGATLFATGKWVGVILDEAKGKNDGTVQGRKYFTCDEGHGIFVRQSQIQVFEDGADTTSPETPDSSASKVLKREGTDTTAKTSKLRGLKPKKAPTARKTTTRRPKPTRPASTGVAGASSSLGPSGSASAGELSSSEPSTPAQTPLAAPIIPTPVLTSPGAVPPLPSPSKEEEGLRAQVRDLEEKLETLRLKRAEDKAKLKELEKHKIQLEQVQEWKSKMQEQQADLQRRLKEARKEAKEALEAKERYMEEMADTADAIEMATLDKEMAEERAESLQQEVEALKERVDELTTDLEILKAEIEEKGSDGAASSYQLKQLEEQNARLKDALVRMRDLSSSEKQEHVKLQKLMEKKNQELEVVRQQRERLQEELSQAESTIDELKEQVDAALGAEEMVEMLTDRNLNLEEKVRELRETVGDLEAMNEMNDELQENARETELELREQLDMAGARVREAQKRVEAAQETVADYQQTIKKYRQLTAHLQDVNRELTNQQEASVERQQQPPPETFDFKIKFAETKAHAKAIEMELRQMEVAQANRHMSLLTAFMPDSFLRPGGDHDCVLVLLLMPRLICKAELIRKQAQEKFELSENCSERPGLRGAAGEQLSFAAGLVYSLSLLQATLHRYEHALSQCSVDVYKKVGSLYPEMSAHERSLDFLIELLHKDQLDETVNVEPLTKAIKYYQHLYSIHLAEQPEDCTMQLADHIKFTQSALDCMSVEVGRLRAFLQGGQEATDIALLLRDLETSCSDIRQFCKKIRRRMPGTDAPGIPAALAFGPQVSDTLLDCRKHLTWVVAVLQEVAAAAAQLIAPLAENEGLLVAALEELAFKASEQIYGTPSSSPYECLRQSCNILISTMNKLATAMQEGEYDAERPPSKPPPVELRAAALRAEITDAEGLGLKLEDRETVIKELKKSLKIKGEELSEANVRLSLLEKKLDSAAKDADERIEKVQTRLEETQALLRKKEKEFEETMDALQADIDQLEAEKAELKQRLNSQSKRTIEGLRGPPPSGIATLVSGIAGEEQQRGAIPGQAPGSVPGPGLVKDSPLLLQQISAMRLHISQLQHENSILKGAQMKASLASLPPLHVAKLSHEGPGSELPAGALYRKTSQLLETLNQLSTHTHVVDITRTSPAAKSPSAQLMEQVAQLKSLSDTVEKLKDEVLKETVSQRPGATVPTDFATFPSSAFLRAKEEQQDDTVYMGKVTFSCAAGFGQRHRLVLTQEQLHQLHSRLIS

Compound: CC1Cc2ccccc2N1C(=O)C1CCCN(C1)C(=O)CCl (mixture of isomers) [TRIM25 ligand 11 (diastereomer mixture)]
Test: probe-labelled cysteine peptide fold change vs DMSO (competition) (log2 fold change); higher = less target engagement (more negative = stronger competition)
Details: THP-1, incubation time: 4 h
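Also: competitive chemoproteomic profiling in live THP-1 cells with an iodoacetamide desthiobiotin (IA-DTB) probe, comparing probe-labelled peptide intensities in compound-treated cells against DMSO-treated controls.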

CTR9_Q6PD62_817_QCSDLLSQAQYHVAR (UniProt Q6PD62)
probe-labelled cysteine peptide fold change (10 µM): 0.0603
probe-labelled cysteine peptide fold change (50 µM): 0.372

CTPS2_Q9NRF8_299_ICSIALVGK (UniProt Q9NRF8)
probe-labelled cysteine peptide fold change (10 µM): -0.0233
probe-labelled cysteine peptide fold change (50 µM): 0.0453

CYFIP1_Q7L576_918_NFVGPPHFQVICR (UniProt Q7L576)
probe-labelled cysteine peptide fold change (10 µM): 0.00496
probe-labelled cysteine peptide fold change (50 µM): 0.184

CYTH4_Q9UIA0_329_KPFCLELYNPSCR (UniProt Q9UIA0)
probe-labelled cysteine peptide fold change (10 µM): 0.138
probe-labelled cysteine peptide fold change (50 µM): 0.14

CYB5R3_P00387_284_APEAWDYGQGFVNEEMIRDHLPPPEEEPLVLMCGPPPMIQYACLPNLDHVGHPTER (UniProt P00387)
probe-labelled cysteine peptide fold change (10 µM): -0.331
probe-labelled cysteine peptide fold change (50 µM): -0.407

CXorf38_Q8TB03_103_NGDVHWGNCRPGR (UniProt Q8TB03)
probe-labelled cysteine peptide fold change (10 µM): 0.0637
probe-labelled cysteine peptide fold change (50 µM): 0.181

DCAF1_Q9Y4B6_967_ERPSPCNGR (UniProt Q9Y4B6)
probe-labelled cysteine peptide fold change (10 µM): -0.0141
probe-labelled cysteine peptide fold change (50 µM): -0.144

CXXC1_Q9P0U4_181+187_TEDCGHCDFCR (UniProt Q9P0U4)
probe-labelled cysteine peptide fold change (10 µM): -0.0772
probe-labelled cysteine peptide fold change (50 µM): -0.0846

CTSS_P25774_320_GNHCGIASFPSYPEI (UniProt P25774)
probe-labelled cysteine peptide fold change (10 µM): 0.013
probe-labelled cysteine peptide fold change (50 µM): 0.223

DCAF12_Q5T6F0_141_DREPGGVTQQGCGIHAIELNPSR (UniProt Q5T6F0)
probe-labelled cysteine peptide fold change (10 µM): -0.0652
probe-labelled cysteine peptide fold change (50 µM): -0.0793

CUL4B_Q13620_248_YNLEELYQAVENLCSYK (UniProt Q13620)
probe-labelled cysteine peptide fold change (10 µM): 0.033
probe-labelled cysteine peptide fold change (50 µM): 0.163

CTSD_P07339_117_LLDIACWIHHK (UniProt P07339)
probe-labelled cysteine peptide fold change (10 µM): -0.0531
probe-labelled cysteine peptide fold change (50 µM): 0.0905

DCAF10_Q5QP82_102_RPGPDCR (UniProt Q5QP82)
probe-labelled cysteine peptide fold change (10 µM): -0.169
probe-labelled cysteine peptide fold change (50 µM): -0.199

DCTN1_Q14203_677_YEHALSQCSVDVYKK (UniProt Q14203)
probe-labelled cysteine peptide fold change (10 µM): -0.0153
probe-labelled cysteine peptide fold change (50 µM): 0.149
